PubChem BioAssay AID540256 (National Center for Advancing Translational Sciences (NCATS), 2011)
Several values for one entry are separate records, joined by “and”; a condition that tells them apart may be missing. Equal values may be shown once. Hit rate of the full screen: of about 300,000 compounds, about 3,700 (1.2%) were called active. Inconclusive results, whose numbers are uncertain, are shown with a selection of clear calls. The call rests on the fitted dose curve; tested in HEK293 cells. Potencies beside an inconclusive call are fits to weak or partial responses and may not hold up.

Assay: qHTS for Inhibitors of binding or entry into cells for Lassa Virus; further: nearly all actives have a fitted effect of over 50% in size
Conditions: Lassa virus pseudotype entry inhibition, cell reporter; activity change, negative = inhibition: at 37.9 µM (top of the series) unless noted
On the % scale 0 is the no-effect control and ±100 the full control effect; potency means the concentration at half of the fitted maximal effect.

Row | SMILES | Potency | activity change, negative = inhibition
1 | CC(C)c1ccc(NC(=O)C2CCCN(S(=O)(=O)c3ccc4[nH]c(=O)ccc4c3)C2)cc1 (stereo not drawn) | inconclusive: 1.58 µM [inhibitor, partial curve, poor fit] | 
2 | COc1ccc(C2(C)CC(C)(C)Nc3ccccc32)cc1 (stereo not drawn) |  | inactive: 1.94% [at 46.1 µM]
3 | CCCN(CCC)CCCNC(=O)c1cn(CC)c2ccc(S(=O)(=O)N3CCc4ccccc4C3)cc2c1=O | inactive and inconclusive: 35.5 µM [inhibitor, single point] | 
4 | COc1ccccc1N1CCN(C(=O)c2cc3c(C)nc4ccccc4c3o2)CC1 | active: 11.2 µM | 
5 | Cc1ccc(-n2c(-c3ccco3)nc3c(cnn3-c3ccc(C)cc3)c2=O)cc1 | inconclusive: 5.62 µM [inhibitor, partial curve, poor fit] | 
6 | O=C(/C=C/c1cccnc1)c1cccc(O)c1 | inconclusive: 35.5 µM [inhibitor, single point] | 
7 | CC1CCc2c(sc(NC(=O)c3ccc(-c4ccccc4[N+](=O)[O-])o3)c2C#N)C1 (stereo not drawn) |  | inactive: -12.7%
8 | Cc1ccccc1NC(=O)N1C2CCCC1CC(NC(=O)C1CC1)C2 (stereo not drawn) | inconclusive: 0.58 µM [inhibitor, single point] | 
9 | CCOc1ccc(Nc2nc(Cc3nnc(SCC(=O)c4ccc(C)c(C)c4)o3)cs2)cc1 |  | inactive: -25%
10 | O=C(Cc1cccc2ccccc12)NC(NC(=S)Nc1ccccc1Cl)C(Cl)(Cl)Cl (stereo not drawn) | inconclusive: 35.5 µM [inhibitor, single point] | 
11 | COc1ccc(NC(=O)Cn2nnc(C(=O)Nc3ccc(C)c(F)c3)c2N)cc1Cl | inconclusive: 35.5 µM [inhibitor, single point] | 
12 | CCOC(=O)c1c(NC(=O)C(C)N2CCN(C(=O)c3ccco3)CC2)sc2c1CCCC2 (stereo not drawn) | active: 11.2 µM | 
13 | CCN(CC(=O)Nc1cc(S(=O)(=O)N2CCCCC2)ccc1C)Cc1ccccc1 | inconclusive: 0.398 µM [inhibitor, full curve, poor fit] | 
14 | COc1ccc(CNC(=O)c2cc(C(=O)C3CC3)c[nH]2)cc1 | inconclusive: 2 µM [inhibitor, full curve] | 
15 | O=C(CN1CCOCC1)Nc1ccc(C2CCCCC2)cc1 | inconclusive: 0.461 µM [activator, partial curve, poor fit] | 
16 | O=C(NCCCCc1ccccc1)c1nn(-c2ccccc2)nc1CO |  | inactive: -18.2% [at 46.1 µM]
17 | Cn1c(=O)oc2cc(S(=O)(=O)N3CCCC(C(=O)N4CCN(c5cccc(Cl)c5)CC4)C3)ccc21 (stereo not drawn) |  | inactive: 2.53% [at 46.1 µM]
18 | c1ccc(Nc2nc(NCC3CCCO3)c3ccccc3n2)cc1 (stereo not drawn) | inconclusive: 3.16 µM [inhibitor, single point] | 

Sorted by molar mass (high to low): some entries from above.
Row | SMILES | Potency | activity change, negative = inhibition
3 | CCCN(CCC)CCCNC(=O)c1cn(CC)c2ccc(S(=O)(=O)N3CCc4ccccc4C3)cc2c1=O | inactive and inconclusive: 35.5 µM [inhibitor, single point] | 
10 | O=C(Cc1cccc2ccccc12)NC(NC(=S)Nc1ccccc1Cl)C(Cl)(Cl)Cl (stereo not drawn) | inconclusive: 35.5 µM [inhibitor, single point] | 
6 | O=C(/C=C/c1cccnc1)c1cccc(O)c1 | inconclusive: 35.5 µM [inhibitor, single point] | 
